# Source: patent US4774232A, “Bile-substituting method of treatment for the promotion of fat digestion” (Chinoin Gyogyszer Es Vegyeszeti Termak Ek Gyara Rt, priority 1985, dated 1988)
# Tested on: normal rats
# Assay: 31-day oral DIMEB treatment of normal rats, plasma and liver triglycerides
# Format: in vivo
# Details: 31 days; for Liver triglycerides / Plasma triglycerides: normal rats
# [1] = oral daily dose 150 mg/kg of DIMEB
# [2] = oral daily dose 300 mg/kg of DIMEB
smiles,measurement,setting,value
"COC[C@H]1O[C@@H]2O[C@H]3[C@H](O)[C@@H](OC)[C@@H](O[C@H]4[C@H](O)[C@@H](OC)[C@@H](O[C@H]5[C@H](O)[C@@H](OC)[C@@H](O[C@H]6[C@H](O)[C@@H](OC)[C@@H](O[C@H]7[C@H](O)[C@@H](OC)[C@@H](O[C@H]8[C@H](O)[C@@H](OC)[C@@H](O[C@H]1[C@H](O)[C@H]2OC)O[C@@H]8COC)O[C@@H]7COC)O[C@@H]6COC)O[C@@H]5COC)O[C@@H]4COC)O[C@@H]3COC [DIMEB, heptakis(2,6-di-O-methyl)-β-cyclodextrin]",Liver triglycerides,[1],3.6 ± 1.0 mg/100 ml
same,Plasma triglycerides,[1],48.3 ± 4.5 mg/100 ml
same,Liver triglycerides,[2],3.8 ± 1.4 mg/100 ml
same,Plasma triglycerides,[2],45.9 ± 3.1 mg/100 ml
same,Influence on plasma and liver triglyceride content,"rats on normal food, 150 mg/kg or 300 mg/kg daily oral","neither the plasma, nor the liver triglyceride content were influenced"
